Data published in PubChem BioAssay AID2685 (National Center for Advancing Translational Sciences (NCATS), 2010).
Out of some 320,000 compounds screened, about 2,100 (0.66%) were called active. The shares of active, inactive and inconclusive entries below differ from those in the screen. The call rests on the fitted dose curve; in most records, active means well fitted inhibition curve with a large enough effect in the signal ratio, with a control signal flat (not every such curve was filed as active); inconclusive means small, poorly fitted or top-dose-only effect, or effect the other way, or a change in a side signal; inactive means flat fitted curve, though single readings scatter; the % refers to the signal ratio. Potencies of inconclusive entries are doubtful fits and often do not repeat.
On the % scale 0 is the no-effect control and ±100 the full control effect; potency means the concentration at half of the fitted maximal effect.

Assay: qHTS Assay for Lipid Storage Modulators in Drosophila S3 Cells
Details: BODIPY lipid droplet fluorescence, 18-24 h, cells fed with added oleic acid; lipid storage change, negative = inhibition: at 46.1 µM (top of the series) unless noted
Outline: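 Drosophila S3 cells loaded with oleic acid (400 uM, as added) and compounds at several concentrations; lipid droplets imaged by 488-nm laser-scanning cytometry, 500–530 nm intensity and object ratio to cell channel. Percent activity normalized to 20 uM Triacsin C.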
In the case of `Cc1nc(SCC(=O)N2CCN(C(=O)c3cccs3)CC2)c2c(C)c(C)sc2n1`, the lipid storage change, negative = inhibition is reported as “inconclusive”.
For `Cc1cc[n+](-c2ccccc2)c2ccccc12`, the lipid storage change, negative = inhibition was inconclusive: -85.6%.
For `Cc1nc2c(C)cccc2c2c1CCS2`, the lipid storage change, negative = inhibition was inconclusive: 8.66%.
For `CC1=NOC(=O)/C1=C\c1ccc(-c2ccc(Br)cc2)o1`, the Potency was inconclusive: 29.1 µM [cytotoxic, single point].
With `CCN1CCN(CCCNc2ncnc3nc[nH]c23)CC1` the lipid storage change, negative = inhibition was inconclusive: -3.49%.
In the case of `CC1(CC(=O)N/N=C/c2ccc(OCc3ccc(Cl)cc3Cl)cc2)OCCCO1`, the lipid storage change, negative = inhibition is reported as inconclusive: -12.3%.
For `CCCN(C(=O)c1cn(-c2ccccc2)nc1-c1ccc(OC)cc1)C1CCS(=O)(=O)C1` (configuration not stated), the lipid storage change, negative = inhibition was “inconclusive”.
For `S=c1[nH]ccn1-c1c(Cl)cccc1Cl`, the lipid storage change, negative = inhibition was inconclusive: 6.97%.
With `CN1CCN(c2ccc([N+](=O)[O-])cc2/C=N/NC(=O)c2cccc([N+](=O)[O-])c2)CC1` the lipid storage change, negative = inhibition was inconclusive: 6.94%.
For `Cc1ccc(CNC(=O)C2CCCN2C(=O)Nc2ccccc2)cc1` (configuration not stated), the Potency was inconclusive: 29.1 µM [activator, single point].
With `Cc1noc(C)c1CSc1nnc2cc(C)c3ccccc3n12` the lipid storage change, negative = inhibition was inconclusive: 16.7%.
With `Cc1nccn1S(=O)(=O)c1cc([N+](=O)[O-])ccc1Cl` the Potency was inconclusive: 0.517 µM [falling, full curve, poor fit].
For `CCn1c(SCC(=O)Nc2nncs2)nnc1-c1ccco1`, the lipid storage change, negative = inhibition was inconclusive: -193%.
In the case of `OC1(c2ccccc2F)CCN(Cc2nnc(-c3ccccc3)o2)CC1`, the “lipid storage change, negative = inhibition” value is reported as inactive: 29.2%.
In the case of `CC(C)CC(=O)NC(=S)Nc1ccccc1F`, the lipid storage change, negative = inhibition is reported as inconclusive: -10.9%.
With `CCOC(=O)c1ccc(NC(=O)Cn2c(-c3nonc3N)nc3ccccc32)cc1` the lipid storage change, negative = inhibition was inconclusive: -27.3%.
In the case of `CCOCCCNC(=O)Cn1cnc2c(cnn2-c2ccc(OC)cc2)c1=O`, the lipid storage change, negative = inhibition is reported as inconclusive: -44%.
For `CC1CCc2[nH]nc(C(=O)O)c2C1` (configuration not stated), the Potency was inconclusive: 3.66 µM [falling, partial curve].
For `O=C(Cn1cnc2ccccc2c1=O)OCCCCN1C(=O)c2ccccc2C1=O`, the lipid storage change, negative = inhibition was inconclusive: -45.2%.
For `Nc1c(C(=O)NCCN2CCOCC2)c2nc3ccccc3nc2n1-c1ccc2c(c1)OCO2`, the Potency was inconclusive: 29.1 µM [rising, partial curve, poor fit].
In the case of `COc1ccc(OC)c(NC(=O)CSc2nc3n[nH]c(C)c3c(=N)n2-c2cccc(Cl)c2C)c1`, the lipid storage change, negative = inhibition is reported as inconclusive: -99.9%.
With `Cc1ccc(C)c(-n2c(SCC(=O)O)nc3sc4c(c3c2=O)CCCC4)c1` the Potency was active: 0.116 µM.
With `CC(C)NC(=O)c1cc(-c2ccc(Br)cc2)on1` the Potency was inconclusive: 4.11 µM [activator, partial curve, poor fit].
For `CCOCCCNC(=O)CN1C(=O)CSc2cc(S(=O)(=O)N3CCCCCC3)ccc21`, the lipid storage change, negative = inhibition was inconclusive: -33.5%.
For `S=c1[nH]nc(-c2cccc(Cl)c2)n1/N=C/c1ccco1`, the lipid storage change, negative = inhibition was inconclusive: 6.46%.
For `C=CCOc1cccc(C2C(C(=O)c3ccco3)=C(O)C(=O)N2CCN(CC)CC)c1` (configuration not stated), the lipid storage change, negative = inhibition was inconclusive: -7.53%.
With `COc1cc2c(cc1OC)CN(C(=O)CN1C(=O)NC3(CCCCC3C)C1=O)CC2` (configuration not stated) the lipid storage change, negative = inhibition was inconclusive: 79.1%.
In the case of `CCOC(=O)c1c(CN2CCN(c3ccccc3)CC2)oc2ccc(O)cc12`, the Potency is reported as inconclusive: 20.6 µM [activator, single point].
For `CCCCN1C(=O)C(=O)N(CC(=O)Nc2sc(C)c(C)c2C(=O)OC)C1=O`, the lipid storage change, negative = inhibition was inconclusive: 45%.
In the case of `C#CCOCCOCCOCCNc1nc(N2CCN(C(=O)[C@H]([C@@H](C)CC)n3cc([C@@H](N)CC(C)C)nn3)CC2)nc(N2CCN(C(=O)[C@H](CCCCN)n3cc([C@@H](N)CC(C)C)nn3)CC2)n1`, the lipid storage change, negative = inhibition is reported as inconclusive: -13.4%.
In the case of `CC(=O)c1cc(-c2ccccc2)n(CCC(=O)NC2CCCCCCC2)c1C`, the lipid storage change, negative = inhibition is reported as inconclusive: 104%.
For `Nc1cc(S(=O)(=O)Nc2ccccc2Cl)ccc1N1CCOCC1`, the lipid storage change, negative = inhibition was inconclusive: -4.79%.
In the case of `O=C(Nc1cccc(-c2cnc3ccccc3n2)c1)c1ccncc1`, the lipid storage change, negative = inhibition is reported as inconclusive: 9.91%.
With `CCOc1ccc(C(C)=O)cc1CN1C(=O)c2ccccc2S1(=O)=O` the Potency was inconclusive: 29.1 µM [activator, single point].
With `CCCc1nc2nc(C)c(NS(=O)(=O)c3ccc(F)cc3)c(=O)n2[nH]1` the lipid storage change, negative = inhibition was inconclusive: 25.6%.
In the case of `CCOc1ccc(CCNC(=O)Cc2ccc(S(=O)(=O)N3CCOCC3)s2)cc1OCC`, the Potency is reported as inconclusive: 0.517 µM [falling, full curve].
In the case of `CN(C(=O)COC(=O)c1ccc(=O)n(Cc2ccccc2)n1)C1CCS(=O)(=O)C1` (configuration not stated), the Potency is reported as inconclusive: 2.06 µM [activator, full curve].
With `O=C(NNC(=O)c1ccc(Br)s1)c1cccc(S(=O)(=O)N2CCCC2)c1` the lipid storage change, negative = inhibition was inconclusive: -32.1%.
In the case of `Cc1c(Cl)ccc2c1NC(=O)[C@]21[C@@H]2C(=O)N(Cc3ccccc3)C(=O)[C@@H]2[C@@H]2CCCN21`, the lipid storage change, negative = inhibition is reported as inconclusive: 18.6%.
In the case of `Cc1ccnc(NC(=O)c2cccc(S(=O)(=O)N3CCCc4ccccc43)c2)c1`, the lipid storage change, negative = inhibition is reported as inconclusive: 18.6%.
In the case of `CC(C)N1CCN(Cc2cccc(-n3cccn3)c2)CC1CCO` (configuration not stated), the lipid storage change, negative = inhibition is reported as inconclusive: 0.685%.
For `CC(C)C(=O)Nc1c(-c2ccc(Cl)cc2)c(=O)c2ccccc2n1C`, the lipid storage change, negative = inhibition was inconclusive: -3.52%.
For `Cc1nn(-c2nc(-c3ccco3)cc(C(F)(F)F)n2)c(C)c1Br`, the lipid storage change, negative = inhibition was inconclusive: -25.8%.
In the case of `CC(=O)Nc1ccc(NC(=O)CCN2C(=O)C3CC=CCC3C2=O)cc1` (configuration not stated), the lipid storage change, negative = inhibition is reported as inconclusive: -20.4%.
In the case of `COc1cc(/C=C2\SC(=S)N(Nc3ccccc3)C2=O)ccc1O`, the Potency is reported as inconclusive: 29.1 µM [falling, single point].
For `COCCn1c(SCC(=O)Nc2cccc(OC)c2)nc2c(oc3ccccc32)c1=O`, the lipid storage change, negative = inhibition was inconclusive: 0.591% [at 9.22 µM].
With `COc1ccc(CN(C)CC(=O)Nc2ccccc2C(=O)NC2CC2)cc1` the lipid storage change, negative = inhibition was inconclusive: 3.96%.
With `Cc1cc(Cl)ccc1C(=O)C1CCCN(C(=O)c2cnsn2)C1` (configuration not stated) the lipid storage change, negative = inhibition was inconclusive: 25.3%.
With `COc1ccc(OC)c(Nc2nc(-c3sc(NC(=O)CC(C)C)nc3C)cs2)c1` the lipid storage change, negative = inhibition was inconclusive: 0.0813%.
For `CC1(C)[C@@H](O)CC[C@]2(C)C3C(O)C=C4[C@H]5C[C@@](C)(CO)CC[C@]5(C)CC[C@]4(C)[C@]3(C)CC[C@@H]12` (some centres not stated), the lipid storage change, negative = inhibition was inconclusive: -12.6%.
For `COc1ccccc1C(=O)N(C)CC(=O)Nc1ccc(N2CCOCC2)cc1`, the Potency was inconclusive: 18.4 µM [falling, single point].
For `Oc1ccccc1N1CCN(c2ncnc3scc(-c4ccc(F)cc4)c23)CC1`, the lipid storage change, negative = inhibition was inconclusive: -100%.
In the case of `Cc1cc(N/N=C/c2ccccc2F)nc(NCc2ccccc2)n1`, the lipid storage change, negative = inhibition is reported as inconclusive: 29.5%.
In the case of `COc1ccc(N(CC(=O)Nc2cccc(SC)c2)S(C)(=O)=O)cc1Cl`, the lipid storage change, negative = inhibition is reported as inconclusive: -9.18%.
With `Cc1nc2scc(-c3ccccc3)c2c(=O)o1` the lipid storage change, negative = inhibition was inconclusive: -27.5%.
For `CCCN(C(=S)Nc1ccccc1)C1CCS(=O)(=O)C1` (configuration not stated), the lipid storage change, negative = inhibition was inconclusive: 6.05%.
With `N#Cc1cncc(-c2ccc3c(c2)OCCOCCOCCOCCOCCO3)n1` the “lipid storage change, negative = inhibition” value was inactive: 9.67%.
For `COc1ccc(CC(=O)Nc2ccc(S(=O)(=O)N3CCC(C)CC3)cc2)c(OC)c1`, the lipid storage change, negative = inhibition was inconclusive: -9.6%.
In the case of `CCOc1ccc2nc(Nc3nc4ccc(NC(C)=O)cc4s3)sc2c1`, the Potency is reported as inconclusive: 6.51 µM [activator, single point].
For `O=[N+]([O-])c1ccccc1S(=O)(=O)N1CCN(C2CCN(Cc3ccccc3)CC2)CC1`, the lipid storage change, negative = inhibition was inconclusive: 60.1%.
In the case of `O=C(CSc1nnc(CNc2ccc(F)cc2)n1Cc1ccccc1)NCc1ccco1`, the lipid storage change, negative = inhibition is reported as inconclusive: 4.38%.
In the case of `N#CCC(=O)Nc1ccc(C(=O)NCc2cccc(Cl)c2)cc1`, the lipid storage change, negative = inhibition is reported as inconclusive: 23.9%.
For `C=CCN(c1ccccc1)S(=O)(=O)c1ccc2c(c1)NC(=O)C(C)C(=O)N2` (configuration not stated), the Potency was inconclusive: 2.91 µM [falling, single point].
In the case of `CCn1c(SCC(=O)N/N=C(/C)c2ccncc2)nc2ccccc21`, the lipid storage change, negative = inhibition is reported as inconclusive: 25.2%.
For `COc1cc(C2CC(=O)Nc3cc(C)c(C)cc32)cc(OC)c1OC` (configuration not stated), the lipid storage change, negative = inhibition was inconclusive: 36.8%.
With `COc1ccc(OC)c(NC(=S)Nc2ccccc2)c1` the lipid storage change, negative = inhibition was inconclusive: 13.5%.
For `COc1ccccc1NS(=O)(=O)c1cccs1`, the lipid storage change, negative = inhibition was inconclusive: -24.2%.
With `CCS(=O)(=O)N1CCN(C(=O)c2cccnc2)CC1` the lipid storage change, negative = inhibition was inconclusive: -139%.
For `Cc1ccc(N=C2NC(=O)CS2)cc1C`, the lipid storage change, negative = inhibition was inconclusive: 18.9%.
With `CCCCN(C(=S)NC(=O)c1cc(OC)c(OC)c(OC)c1)c1c(N)n(Cc2ccccc2)c(=O)[nH]c1=O` the Potency was inconclusive: 8.2 µM [activator, partial curve, poor fit].
For `COC(=O)Nc1sc2c(c1C(=O)NCc1ccco1)CCC2`, the Potency was inconclusive: 5.8 µM [activator, single point].
In the case of `O=C(c1cc(-c2ccccc2)n[nH]1)N1CCN(S(=O)(=O)c2ccccc2)CC1`, the Potency is reported as inconclusive: 29.1 µM [falling, single point].
In the case of `C/C(N)=C(/C#N)C(=O)COC(=O)c1cc(S(=O)(=O)N2CCCCC2)ccc1C`, the Potency is reported as inconclusive: 1.84 µM [activator, partial curve].
With `OC[C@H]1OC(O)[C@H](O)[C@@H]1O` (some centres not stated) the lipid storage change, negative = inhibition was inconclusive: -27.7%.
In the case of `CCOC(=O)c1c(C)[nH]c(C(=O)N2CCC(C(=O)OCC)CC2)c1C`, the lipid storage change, negative = inhibition is reported as inconclusive: 46.1%.
In the case of `Cc1c(C(=O)OCC(=O)Nc2c(C)n(C)n(-c3ccccc3)c2=O)cccc1[N+](=O)[O-]`, the lipid storage change, negative = inhibition is reported as inconclusive: 13.7%.
